Data taken from PubChem BioAssay (NCATS).
Several values for one entry are separate records, joined by “and”; a condition that tells them apart may be missing. Identical values can stand only once. The inconclusive results got no clear call from the source; some entries with a clear call stand among them for comparison. For some of these results: Potencies beside an inconclusive call are fits to weak or partial responses and may not hold up. For some of these results: “Side channel” marks fits to a control or component signal instead of the main read-out. Activity calls are given as the source filed them. Unless noted, calls follow the shape of the full dose curve.

The chains behind the UniProt entries cited, without tags or fusion partners. Where a name states a change or a piece, a line headed by the entry shows the natural chain unless it says otherwise.
UniProt P03372, whole entry, looked up: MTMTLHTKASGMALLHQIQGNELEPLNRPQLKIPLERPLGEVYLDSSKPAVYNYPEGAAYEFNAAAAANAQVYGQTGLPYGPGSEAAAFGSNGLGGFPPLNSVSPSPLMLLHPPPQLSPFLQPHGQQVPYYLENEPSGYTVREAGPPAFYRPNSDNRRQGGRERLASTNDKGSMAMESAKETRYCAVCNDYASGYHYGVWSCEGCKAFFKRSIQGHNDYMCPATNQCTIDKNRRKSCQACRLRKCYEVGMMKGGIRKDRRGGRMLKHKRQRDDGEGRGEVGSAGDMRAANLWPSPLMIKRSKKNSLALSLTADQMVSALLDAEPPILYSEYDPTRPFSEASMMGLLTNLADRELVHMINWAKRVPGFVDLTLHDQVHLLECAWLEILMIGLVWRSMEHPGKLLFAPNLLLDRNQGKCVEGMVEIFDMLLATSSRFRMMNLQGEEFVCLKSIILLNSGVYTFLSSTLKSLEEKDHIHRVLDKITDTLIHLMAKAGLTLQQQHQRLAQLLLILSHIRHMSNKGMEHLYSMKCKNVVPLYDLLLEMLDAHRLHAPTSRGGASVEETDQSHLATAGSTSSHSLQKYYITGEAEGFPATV
UniProt Q03181: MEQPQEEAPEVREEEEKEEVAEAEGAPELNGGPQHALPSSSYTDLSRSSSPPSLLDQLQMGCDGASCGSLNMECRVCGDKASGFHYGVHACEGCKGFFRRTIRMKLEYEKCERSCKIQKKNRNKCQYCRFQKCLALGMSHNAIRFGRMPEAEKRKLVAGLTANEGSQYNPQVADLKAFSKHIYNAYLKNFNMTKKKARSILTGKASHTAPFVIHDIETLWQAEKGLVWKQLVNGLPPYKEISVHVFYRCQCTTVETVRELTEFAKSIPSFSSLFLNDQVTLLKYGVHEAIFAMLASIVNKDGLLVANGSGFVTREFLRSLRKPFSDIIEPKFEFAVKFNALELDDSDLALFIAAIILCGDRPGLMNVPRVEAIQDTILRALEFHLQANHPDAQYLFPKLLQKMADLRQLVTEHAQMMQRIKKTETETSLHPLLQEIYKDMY
UniProt P19793: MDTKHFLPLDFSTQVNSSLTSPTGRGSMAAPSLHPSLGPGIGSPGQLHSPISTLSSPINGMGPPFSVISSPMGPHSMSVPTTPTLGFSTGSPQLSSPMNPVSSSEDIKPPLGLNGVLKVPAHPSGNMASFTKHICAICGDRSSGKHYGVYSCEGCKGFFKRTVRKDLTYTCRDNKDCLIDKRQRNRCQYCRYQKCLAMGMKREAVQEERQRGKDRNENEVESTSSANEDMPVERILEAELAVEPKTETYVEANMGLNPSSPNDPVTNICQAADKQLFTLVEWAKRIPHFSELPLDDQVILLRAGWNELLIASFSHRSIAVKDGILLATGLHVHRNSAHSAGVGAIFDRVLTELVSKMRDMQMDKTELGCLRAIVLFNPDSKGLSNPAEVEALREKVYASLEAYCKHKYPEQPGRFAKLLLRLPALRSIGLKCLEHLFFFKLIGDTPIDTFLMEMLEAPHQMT
UniProt P10828: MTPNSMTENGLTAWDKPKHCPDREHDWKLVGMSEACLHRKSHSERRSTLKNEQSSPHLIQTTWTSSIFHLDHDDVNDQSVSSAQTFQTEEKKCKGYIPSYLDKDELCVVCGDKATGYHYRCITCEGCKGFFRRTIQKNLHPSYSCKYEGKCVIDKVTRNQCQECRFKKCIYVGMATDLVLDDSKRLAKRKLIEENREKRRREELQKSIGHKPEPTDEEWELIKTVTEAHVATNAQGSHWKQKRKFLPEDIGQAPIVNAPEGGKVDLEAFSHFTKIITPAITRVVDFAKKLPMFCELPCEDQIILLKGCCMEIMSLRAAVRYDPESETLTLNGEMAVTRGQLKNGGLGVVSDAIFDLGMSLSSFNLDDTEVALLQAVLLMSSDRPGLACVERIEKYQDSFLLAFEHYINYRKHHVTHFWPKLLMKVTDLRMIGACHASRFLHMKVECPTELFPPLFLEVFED
UniProt P01375, whole entry, looked up: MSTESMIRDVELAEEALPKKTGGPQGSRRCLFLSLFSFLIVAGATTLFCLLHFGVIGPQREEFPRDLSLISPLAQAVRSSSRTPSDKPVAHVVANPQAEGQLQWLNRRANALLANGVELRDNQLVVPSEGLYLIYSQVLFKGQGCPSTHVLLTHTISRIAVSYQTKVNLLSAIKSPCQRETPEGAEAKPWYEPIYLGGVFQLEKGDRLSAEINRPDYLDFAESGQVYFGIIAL
UniProt P11473: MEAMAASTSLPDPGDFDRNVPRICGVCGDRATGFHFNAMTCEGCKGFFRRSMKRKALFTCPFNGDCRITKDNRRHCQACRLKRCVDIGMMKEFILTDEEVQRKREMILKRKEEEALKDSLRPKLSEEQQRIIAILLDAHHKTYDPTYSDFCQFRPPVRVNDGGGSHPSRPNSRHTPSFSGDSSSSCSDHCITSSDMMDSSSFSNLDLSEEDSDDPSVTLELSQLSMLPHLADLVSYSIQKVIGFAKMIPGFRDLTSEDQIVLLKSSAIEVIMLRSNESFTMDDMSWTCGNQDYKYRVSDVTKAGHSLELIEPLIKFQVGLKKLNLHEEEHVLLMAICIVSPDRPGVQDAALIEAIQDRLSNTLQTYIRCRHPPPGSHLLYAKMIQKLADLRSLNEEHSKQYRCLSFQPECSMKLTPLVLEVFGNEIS

Assays:
[1] = Cell Viability - LYMP1-003 - Assay at 40 hr (AID 964; active = well fitted curve in the direction sought with a large enough effect; inconclusive = small, poorly fitted or top-dose-only effect, or another doubt; inactive = no such curve, though single readings can be large; an effect the other way counts as inactive or inconclusive; also: potency is read from the fitted curve at half-maximal effect; nearly all actives have a fitted effect of over 60% in size)
Method in brief: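 Luminescent ATP signal (CellTiter-Glo) served as the viability read-out after 40 hr compound treatment of human lymphoblastoid LYMP1-003 cells at 37 C. Decreases in ATP were fitted with the Hill equation to give AC50.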

[2] = Cell Viability - LYMP2-010 (AID 981; active = well fitted curve in the direction sought with a large enough effect; inconclusive = small, poorly fitted or top-dose-only effect, or another doubt; inactive = no such curve, though single readings can be large; an effect the other way counts as inactive or inconclusive;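 also: potency is read from the fitted curve at half-maximal effect; cells exposed to compound for 24 hours at 37 °C; nearly all actives have a fitted effect of over 55% in size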)
Method in brief: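 Steps: seed 2500 LYMP2-010 cells per well; incubate 5 hr at 37 C; add compound; incubate 24 hr at 37 C; add CellTiter-Glo, wait 30 min at room temperature; read luminescence. Concentration-response fitted to Hill equation for AC50.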

[3] = target: Estrogen receptor (Homo sapiens) (UniProt P03372); assay: qHTS assay for small molecule antagonists of estrogen receptor alpha signaling (AID 588513; active = well fitted curve in the direction sought with a large enough effect in the signal ratio, with a control signal flat, not every such curve was filed as active; inconclusive = small, poorly fitted or top-dose-only effect, or effect the other way, or a change in a side signal; inactive = no such curve, though single readings can be large or run the other way; the % refers to the signal ratio; also: % is scaled to controls: 0 for no effect and ±100 for the full control effect); conditions: ER-alpha-UAS-bla HEK293, beta-lactamase ratio, antagonist mode; activity, negative = inhibition: at 76.9 µM (top of the series) unless noted
Method in brief: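 ER-alpha-UAS-bla GripTite HEK 293 cells in 2% charcoal/dextran-treated FBS medium; compounds titrated (1:2, duplicate), then stimulated with 0.5 nM 17-beta-estradiol for 18 h at 37C. CCF4 beta-lactamase fluorescence; Hill-fit IC50 and efficacy.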

[4] = target: Glucocorticoid receptor (Homo sapiens) (UniProt P04150); assay: qHTS assay for small molecule agonists of glucocorticoid receptor signaling (AID 588532; active = well fitted curve in the direction sought with a large enough effect in the signal ratio, with a control signal flat; inconclusive = small, poorly fitted or top-dose-only effect, or a change in a side signal; inactive = no such curve, though single readings can be large or run the other way; the % refers to the signal ratio; also: potency is read from the fitted curve at half-maximal effect); conditions: HeLa MMTV-bla, beta-lactamase ratio, agonist, 18 h; activation: stronger effect = higher value, percent of dexamethasone control, DMSO zero
Method in brief: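 Stimulation of a glucocorticoid response element-driven beta-lactamase gene was measured in HeLa cells. Responses were scaled between DMSO basal and 0.1 uM dexamethasone, then fitted for half-maximal stimulation.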

[5] = target: Glucocorticoid receptor (Homo sapiens) (UniProt P04150); assay: qHTS assay for small molecule antagonists of glucocorticoid receptor signaling (AID 588533; active = well fitted inhibition curve with a large enough effect in the signal ratio, with a control signal flat, not every such curve was filed as active; inconclusive = small, poorly fitted or top-dose-only effect, or effect the other way, or a change in a side signal; the % refers to the signal ratio;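 also: cells stimulated with 2 nM dexamethasone as agonist; % is scaled to controls: 0 for no effect and ±100 for the full control effect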); conditions: HeLa MMTV-bla, GRE beta-lactamase ratio, antagonist mode, 18 h; activity change, negative = inhibition: at 76.8 µM (top of the series) unless noted
[6] = target: Peroxisome proliferator-activated receptor delta (Homo sapiens) (UniProt Q03181); assay: qHTS assay for small molecule antagonists of peroxisome proliferator-activated receptor delta signaling (AID 588535; active = well fitted inhibition curve with a large enough effect in the signal ratio, with a control signal flat, not every such curve was filed as active; inconclusive = small, poorly fitted or top-dose-only effect, or effect the other way, or a change in a side signal; inactive = no such curve, though single readings can be large or run the other way; the % refers to the signal ratio; also: potency is read from the fitted curve at half-maximal effect); conditions: HEK293T PPARd-UAS-bla, beta-lactamase FRET ratio, 18 h; activity change, negative = inhibition: at 76.7 µM (top of the series) unless noted
Method in brief: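 Inhibition of PPAR-delta response element-driven beta-lactamase expression is measured in HEK293T cells exposed to a compound titration series for 18 hrs at 37 C. Half-maximal inhibition comes from Hill equation fitting.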

[7] = target: Peroxisome proliferator-activated receptor gamma (Homo sapiens) (UniProt P37231); assay: qHTS assay for small molecule antagonists of peroxisome proliferator-activated receptor gamma signaling (AID 588537; active = well fitted inhibition curve with a large enough effect in the signal ratio, with a control signal flat, not every such curve was filed as active; inconclusive = small, poorly fitted or top-dose-only effect, or effect the other way, or a change in a side signal; the % refers to the signal ratio; also: potency is read from the fitted curve at half-maximal effect;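 as to activity, negative = inhibition: reporter cells co-stimulated with 50 nM rosiglitazone agonist during compound treatment; % of control where 0% means no effect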); conditions: HEK293 PPARg-UAS-bla, beta-lactamase ratio, antagonist mode; activity, negative = inhibition: at 76.8 µM (top of the series)
Method in brief: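 Compounds are tested as concentration series for inhibition of rosiglitazone-driven (50 nM) reporter expression in GeneBLAzer PPAR-gamma-UAS-bla HEK293 cells. After 16 h at 37 C, CCF4 substrate is added for 2 h at room temperature and blue/green fluorescence is measured.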

[8] = target: Retinoic acid receptor RXR-alpha (Homo sapiens) (UniProt P19793); assay: qHTS assay for small molecule agonists of retinoid X receptor alpha signaling (AID 588544); conditions: HEK293T RXRa-UAS-bla, beta-lactamase reporter, 18 h; activation: at 76.7 µM (top of the series) unless noted; also: potency is read from the fitted curve at half-maximal effect
[9] = target: Thyroid hormone receptor beta (Homo sapiens) (UniProt P10828); assay: qHTS assay for small molecule agonists of thyroid hormone receptor beta signaling (AID 588545); conditions: TR-UAS-bla GripTite HEK 293, beta-lactamase ratio, agonist mode, 18 h; activation: at 76.7 µM, percent of T3 response, DMSO as zero; also: potency is read from the fitted curve at half-maximal effect
Method in brief: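 Beta-lactamase reporter activity under TR response element control is measured in HEK 293 cells after 18 hrs compound exposure. Signal is ratiometric CCF4 fluorescence, 460/530 nm.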

[10] = target: Tumor necrosis factor (Homo sapiens) (UniProt P01375); assay: qHTS assay to identify small molecules that stimulate Tumor Necrosis Factor-alpha (TNF-alpha) secretion (AID 651757; active = well fitted curve in the direction sought with a large enough effect in the signal ratio; inconclusive = small, poorly fitted or top-dose-only effect, or a change in a side signal; inactive = no such curve, though single readings can be large or run the other way; the % refers to the signal ratio; also: 0% is about no effect); conditions: Human cells, HTRF 665/615 ratio; activation (TNF-alpha secretion): at 92.2 µM (top of the series)
Method in brief: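 Human monocytic THP-1 cells are plated, treated with compound and held at 37 C for 17 hrs. Labeled anti-TNF-alpha antibody mixture is then added; after 3 hr at room temperature, TR-FRET signal reports secreted TNF-alpha.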

[11] = qHTS assay to identify small molecules that stimulate interleukin-8 (IL-8) secretion (AID 651758; active = well fitted activation curve with a large enough effect in the signal ratio; inconclusive = small, poorly fitted or top-dose-only effect, or effect the other way, or a change in a side signal; the % refers to the signal ratio; also: 0% is about no effect); conditions: HTRF ratio (665/615); activation: at 92.2 µM (top of the series)
Method in brief: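 Quantitative HTS in THP-1 monocytic cells at 2000 cells per well, with 16 hrs compound incubation at 37 C. IL-8 in the medium was then quantified by HTRF immunoassay, read after 1-3 hrs at room temperature.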

[12] = qHTS assay for small molecule agonists of the antioxidant response element (ARE) signaling pathway measured by Nrf2-dependant transcriptional activity (AID 720636; active = well fitted curve in the direction sought with a large enough effect in the repeat runs; inconclusive = weak or mixed curves; inactive = no such curve, though single readings can be large; an effect the other way counts as inactive or inconclusive; also: potency is read from the fitted curve at half-maximal effect)
Method in brief: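 Attachment 6 hr at 37 C, then compound versus DMSO vehicle for 16 hr in ARE-luc HepG2 cells (1% dialyzed FBS); luminescence recorded 30 min after ONE-Glo addition at room temperature.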

[13] = qHTS assay for small molecule agonists of the antioxidant response element (ARE) signaling pathway measured by Nrf2-dependant transcriptional activity - cell viability counter screen (AID 720653; active = well fitted curve in the direction sought with a large enough effect in the repeat runs; inconclusive = weak or mixed curves; inactive = no such curve, though single readings can be large; an effect the other way counts as inactive or inconclusive; also: potency is read from the fitted curve at half-maximal effect); conditions: ARE-bla HepG2 viability, CellTiter-Glo ATP luminescence, 16 h; max response: stronger effect = lower value
Method in brief: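 ARE-bla HepG2 cells (2,000/well) rested 5 hrs at 37C/5% CO2, then exposed to compounds in DMSO for 16 hrs. Viability was read in the same wells as intracellular ATP by luminescence, 30 min at room temperature after reagent addition.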

[14] = target: Vitamin D3 receptor (Homo sapiens) (UniProt P11473); assay: qHTS assay for small molecule agonists of vitamin D receptor signaling (AID 588543); conditions: HEK293T VDR-UAS-bla, beta-lactamase ratio, 16 h; activation: at 76.8 µM (top of the series);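 also: 0% = DMSO basal and 100% = reference agonist control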
Method in brief: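 VDR-UAS-bla HEK293T cells, 2000/well, 2% charcoal-stripped FBS; compound titration 16 h at 37 C; CCF4 beta-lactamase ratio read. Normalized to 50 nM 1-alpha,25-dihydroxyvitamin D3 (100%) and DMSO; Hill fit gives EC50, efficacy.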

[15] = qHTS assay for small molecule agonists of the antioxidant response element (ARE) signaling pathway (AID 651741; active = well fitted activation curve with a large enough effect in the signal ratio; inconclusive = small, poorly fitted or top-dose-only effect, or effect the other way, or a change in a side signal; the % refers to the signal ratio; also: % of control where 0% means no effect); conditions: HepG2 ARE-bla reporter, beta-lactamase FRET ratio, 16 h; activation: at 96 µM (top of the series) unless noted
Method in brief: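 Reporter: beta-lactamase under ARE, stably in HepG2. Exposure: 16 h, 37 C, compounds delivered in DMSO by pin tool after 5 h cell preincubation. Readout: FRET substrate fluorescence after 2 h at RT.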

[16] = target: Peroxisome proliferator-activated receptor delta (Homo sapiens) (UniProt Q03181); assay: qHTS assay for small molecule agonists of peroxisome proliferator-activated receptor delta signaling (AID 588534); conditions: HEK293T PPARdelta-UAS-bla, beta-lactamase ratio, 18 h; activation: at 76.7 µM (top of the series);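 also: 0% = DMSO basal wells and 100% = positive control agonist at 10 µM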
Method in brief: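 Agonist-mode qHTS; reporter cells, 5 hrs 37 C pre-incubation; compound titration, 18 hrs 37 C; CCF4 dye, 2 hrs RT; fluorescence read. EC50/efficacy via Hill fit.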

[17] = qHTS assay for cell viability of HEK293 cells (AID 743288; active = well fitted curve in the direction sought with a large enough effect; inconclusive = small, poorly fitted or top-dose-only effect, or another doubt; inactive = no such curve, though single readings can be large; an effect the other way counts as inactive or inconclusive; also: % is scaled to controls: 0 for no effect and ±100 for the full control effect; nearly all actives have a fitted effect of over 50% in size); conditions: ATP luminescence (CellTiter-Glo), 18 h; max response: stronger effect = lower value
Method in brief: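 Steps: plate 2,000 parental HEK293 cells per well; incubate ≥5 h, 37 C; add compounds in DMSO; incubate 18 h, 37 C; add CellTiter-Glo; wait 30 min at room temperature; read luminescence.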

SMILES: Cc1ccc(O)c(C)c1
- Potency [1]: inconclusive: 63.1 µM [cytotoxic, single point]
- Potency [2]: inconclusive: 39.8 µM [cytotoxic, partial curve, poor fit]
- activity, negative = inhibition [3]: inconclusive: 4.7% [at 2.03 mM]
- Potency [4]: inconclusive: 398 µM [side channel, falling, single point]
- activity change, negative = inhibition [5]: inconclusive: 30.9% [at 2.03 mM]
- Potency [6]: inactive and inconclusive: 251 µM [activator, partial curve, poor fit]
- Potency [7]: inactive and inconclusive: 1.41 mM [inhibitor, partial curve, poor fit]
- Potency [8]: inconclusive: 1000 µM [activator, partial curve]
- Potency [9]: inconclusive: 158 nM [side channel, falling, full curve, poor fit]
- Potency [10]: inactive
- activation [11]: inconclusive: -18.8%
- Potency [12]: inconclusive: 501 µM [activator, full curve, poor fit]
- Potency [13]: inconclusive: 1.41 mM [cytotoxic, single point]

SMILES: COc1nc(NC(C)C)nc(NC(C)C)n1
- Potency [3]: inactive
- Potency [4]: inconclusive: 0.0178 µM [side channel, falling, full curve, poor fit]
- Potency [7]: inactive
- Potency [14]: inactive
- Potency [15]: inactive

SMILES: COc1nc(C)nc(NC(=O)NS(=O)(=O)c2ccccc2CCC(F)(F)F)n1
- Potency [3]: inactive
- activation [16]: inconclusive: 6.73%
- Potency [6]: inactive
- max response [17]: inactive: 0.421%
